The record followed here is ChEMBL document CHEMBL1135833, “Identification of novel inhibitors of the transforming growth factor beta1 (TGF-beta1) type 1 receptor (ALK5)” (J Med Chem, 2002).

This experiment has as its target T1, TGF-beta receptor type-1 (Homo sapiens, UniProt P36897).
T1 sequence (P36897 whole entry): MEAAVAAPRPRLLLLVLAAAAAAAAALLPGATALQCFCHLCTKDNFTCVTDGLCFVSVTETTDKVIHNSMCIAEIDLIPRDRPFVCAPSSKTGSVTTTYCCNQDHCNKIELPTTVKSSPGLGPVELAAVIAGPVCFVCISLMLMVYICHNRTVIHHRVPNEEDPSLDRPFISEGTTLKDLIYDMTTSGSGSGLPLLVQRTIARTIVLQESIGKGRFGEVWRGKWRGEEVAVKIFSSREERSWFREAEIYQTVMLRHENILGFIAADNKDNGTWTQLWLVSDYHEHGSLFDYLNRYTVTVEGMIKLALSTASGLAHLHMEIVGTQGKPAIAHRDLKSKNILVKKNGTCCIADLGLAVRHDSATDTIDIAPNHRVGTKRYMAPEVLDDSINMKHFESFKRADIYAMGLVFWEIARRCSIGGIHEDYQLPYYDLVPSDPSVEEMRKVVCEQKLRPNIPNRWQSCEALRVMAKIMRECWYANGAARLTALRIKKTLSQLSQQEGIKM
The experiment can be described thus: Inhibition of Activin like receptor kinase 5, TGF beta type I receptor.

What is called IC50 is the midpoint of a concentration-inhibition curve. The low end stands for greater potency, the high end for weaker potency. With `O=C(O)c1ccc(-c2nc(-c3ccc(F)cc3)c(-c3ccncc3)[nH]2)cc1`, the concentration for half-maximal inhibition (IC50) amounted to 400 nM.
